# Measurements: PubChem BioAssay AID1347075 (National Center for Advancing Translational Sciences (NCATS), 2019)
# Where “and” joins values, the source holds several entries; their conditions need not be identical. Equal values may be shown once. Out of some 400,000 compounds screened, about 5,500 (1.4%) were called active. Inconclusive results, whose numbers are uncertain, are shown with a selection of clear calls. Calls follow the shape of the dose curve; as a rule, active = well fitted cell-killing curve with a large enough effect; inconclusive = small, poorly fitted or top-dose-only effect, or effect the other way; inactive = flat fitted curve, though single readings scatter. Potencies beside an inconclusive call are fits to weak or partial responses and may not hold up.
# Test: qHTS assay for MDR1-selective chemotherapeutics: Primary screen using the parental adenocarcinoma cell KB-3-1; also: nearly all actives have a fitted effect of over 60% in size
# Settings: KB-3-1 viability, CellTiter-Glo ATP luminescence, 72 h; activity change, negative = cytotoxic: at 46.1 µM (top of the series)
# Procedure, shortened: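 Using CellTiter-Glo luminescence, growth of non-resistant KB-3-1 adenocarcinoma cells is assessed 72 h after pin-tool compound addition at 37 °C. Normalized responses across the concentration series yield fitted curves.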
# % is scaled to controls: 0 for no effect and ±100 for the full control effect; potency is read from the fitted curve at half-maximal effect.
SMILES,Potency,"activity change, negative = cytotoxic"
CC(NCc1cc(Br)ccc1OCC(=O)NCc1ccccc1)c1ccccc1 (stereo not given),inactive,
CC(C)c1[nH]nc2c1C(C1C=CCCC1)C(C#N)=C(N)O2 (stereo not given),"inconclusive: 25.9 µM [cytotoxic, partial curve, poor fit]",
CS(=O)(=O)N1CCN(c2ccccc2NC(=O)c2cc(Br)ccc2Cl)CC1,,inconclusive: 3.03%
CCc1ccc(-c2nc(SCC(=O)N3CCOCC3)n[nH]2)cc1,"inconclusive: 14.6 µM [rising, partial curve, poor fit]",
Cc1nnsc1-c1nc2ccccc2n1C(CCc1ccccc1)c1nc2ccccc2[nH]1 (stereo not given),"inconclusive: 23.1 µM [cytotoxic, single point]",
O=C(Nc1ccncc1)c1ccc(Cl)c(S(=O)(=O)N2CCc3ccccc32)c1,"inconclusive: 14.6 µM [cytotoxic, partial curve, poor fit]",
COCCOc1ccc(C(F)(F)F)cc1NC(=O)c1ccc(C)cc1,"inconclusive: 29.1 µM [rising, single point]",
CC(=O)Nc1ccc(S(=O)(=O)N2c3ccc(F)cc3CCC2C)cc1 (stereo not given),active: 9.2 µM,
COc1ccc2[nH]cc(CCN=C(NC(=O)c3ccccc3OC)Nc3nc(C)cc(C)n3)c2c1,inactive,
Cc1ccc(-c2csc3ncnc(N4CCN(c5ccccc5O)CC4)c23)cc1,"inconclusive: 29.1 µM [cytotoxic, single point]",
COc1ccc(CNC[C@H]2O[C@@H](n3ccc(=O)[nH]c3=O)[C@H](O)[C@@H]2O)cc1OC,"inconclusive: 0.0092 µM [rising, full curve]",
COc1cc(NS(=O)(=O)c2ccc(Br)s2)cc(OC)c1,"inconclusive: 18.4 µM [cytotoxic, partial curve, poor fit]",
COc1cc2nc(CN(C)Cc3nc4ccccc4c(=O)[nH]3)[nH]c(=O)c2cc1OC,inactive,
CCCCCN(C(=O)CN1CCC(Cc2ccccc2)CC1)c1c(N)n(CCCC)c(=O)[nH]c1=O,"inconclusive: 18.4 µM [cytotoxic, partial curve, poor fit]",
N=c1n(Cc2ccc(Cl)cc2)c2ccccc2n1CC(O)c1ccco1 (stereo not given),"inconclusive: 29.1 µM [cytotoxic, single point]",
CC(=O)O[C@H]1C(=O)[C@@]2(C)[C@H]([C@H](OC(=O)c3ccccc3)[C@]3(O)C[C@H](OC(=O)[C@H](O)[C@@H](NC(=O)c4ccccc4)c4ccccc4)C(C)=C1C3(C)C)[C@]1(OC(C)=O)CO[C@@H]1C[C@@H]2O,"active: 46.1 nM and inconclusive: 8.2 nM [cytotoxic, full curve, poor fit]",
O=C(CCCN1C(=O)c2ccccc2C1=O)Nc1c2c(nc3c1CCC3)CCC2,inactive,
O=C1C(=C2SCCCS2)CC/C1=C\c1ccc(F)cc1,"inconclusive: 18.4 µM [cytotoxic, single point]",
O=C(O)c1ccc(Nc2ncc([N+](=O)[O-])cc2[N+](=O)[O-])cc1,inactive,
CC(=O)Nc1ccc(Nc2cc(C(C)C)nc3c(-c4ccccc4)c(C)nn23)cc1,active: 5.8 µM,
COc1ccc(C(C[N+](=O)[O-])c2c(-c3ccccc3)cc3ccccn23)cc1 (stereo not given),"inconclusive: 29.1 µM [cytotoxic, single point]",
CC(C)(C)N(Cc1ccccc1)C(=O)COC(=O)C1CCN(c2ccc(C(F)(F)F)cn2)CC1,"inconclusive: 29.1 µM [cytotoxic, single point]",

SMILES,Potency,"activity change, negative = cytotoxic"
CC(=O)Nc1ccc(S(=O)(=O)N(C)CC(=O)OCC(=O)c2cc(C)n(-c3ccc4c(c3)OCO4)c2C)cc1,"inconclusive: 20.6 µM [cytotoxic, partial curve, poor fit]",
OCCN(CCO)c1ncnc2c1sc1nc(N3CCOCC3)c3c(c12)CCCC3,inactive,
COc1cccc(OC)c1C(=O)Nc1cc(C)nn1-c1nc2ccccc2[nH]1,active: 14.6 µM,
O=S(=O)(c1ccc(NC(=S)N/N=C/c2c3ccccc3cc3ccccc23)cc1)N1CCOCC1,active: 3.66 µM,
CC1CCc2c(sc3ncn(CC(=O)N4CCCCC4)c(=O)c23)C1 (stereo not given),inactive,
CC(C)C(=O)NC(c1ccco1)c1c(O)ccc2ccccc12 (stereo not given),inactive,
CCn1c(=NC(=O)c2ccc(S(=O)(=O)N3CCOCC3)cc2)sc2cccc(OC)c21,"inconclusive: 20.6 µM [cytotoxic, single point]",
Cn1c(-c2csc(-c3ccccc3)n2)n[nH]c1=S,"inconclusive: 32.6 µM [cytotoxic, partial curve, poor fit]",
CN(c1cc2c(c3c1ccn3C)C1CCC2O1)C1CCCCC1 (stereo not given),"inconclusive: 29.1 µM [cytotoxic, single point]",
NC(=O)CSc1cn(Cc2ccc(F)cc2)c2ccccc12,"inconclusive: 20.6 µM [cytotoxic, single point]",
CCCCNc1ncnc2c1cnn2Cc1ccc(Cl)cc1,"inconclusive: 23.1 µM [cytotoxic, partial curve, poor fit]",
O=C1CC(Sc2nnc(-c3ccccc3O)o2)C(=O)N1c1ccccc1 (stereo not given),inactive,
CCCCCCCCCCCC[n+]1ccc(C)c2ccccc21,active: 4.11 µM,
CCO[C@@H]1OC(C(=O)Nc2ccccc2)=C[C@H](c2coc3ccccc3c2=O)[C@H]1CCCO,inactive,
COc1ccccc1C(CCNCc1ccc(N(C)C)cc1)c1ccc(OC(C)C)cc1 (stereo not given),"inconclusive: 11.6 µM [cytotoxic, partial curve, poor fit]",
COc1ccc(C(=O)OCC(=O)Nc2ccc3c(c2)OCCO3)c(OC)c1,"inconclusive: 0.0164 µM [rising, full curve]",
O=C(NCCc1ccc(F)cc1)C(=O)NCC1CCCN1S(=O)(=O)c1ccccc1 (stereo not given),active: 18.4 µM,
Nc1nc(CN2CCN(c3ccccc3F)CC2)nc(Nc2ccccc2)n1,inactive,
CCc1ccc(Nc2nc3ccccc3nc2NS(=O)(=O)c2ccccc2)cc1,"inconclusive: 14.6 µM [cytotoxic, partial curve]",
Cc1ccc(NC(=O)CCC(=O)NNC(=S)Nc2ccc(F)cc2)c(C)c1,"inconclusive: 11.6 µM [rising, partial curve, poor fit]",
CN(C)/C=N/c1nc2ncc(-c3ccc(Cl)cc3)c(/N=C/N(C)C)n2n1,"inconclusive: 23.1 µM [cytotoxic, partial curve]",
O=C(NCCCOc1cccc(CN2CCCCC2)c1)c1ccc(Cl)c(Cl)c1,inactive,

SMILES,Potency,"activity change, negative = cytotoxic"
CCOc1ccc(CCNC(=O)COC(=O)Cn2nc(C)c([N+](=O)[O-])c2C)cc1OCC,inactive,
O=Nc1c(O)[nH]c2ccc(Cl)c(Cl)c12,active: 0.411 µM,
CCc1n[nH]c(=S)n1/N=C/C(C)=C\c1ccccc1,"inconclusive: 18.4 µM [cytotoxic, single point]",
CCn1c(NC(=O)C2CCCCC2)nc2ccccc21,"inconclusive: 29.1 µM [cytotoxic, single point]",
CCN(CC)S(=O)(=O)c1ccc(C(=O)NCCSc2c(-c3ccccc3)[nH]c3ccccc23)cc1,"inconclusive: 16.4 µM [cytotoxic, partial curve]",
COc1cc(C(=O)Nc2ccncc2)c([N+](=O)[O-])cc1OC,"inconclusive: 0.0082 µM [rising, full curve, poor fit]",
CN1/C(=C\C(=O)c2cncc(Br)c2)C(C)(C)c2ccccc21,"inconclusive: 29.1 µM [cytotoxic, single point]",
SC(COCc1ccccc1)CN1CCN(Cc2ccc3c(c2)OCO3)CC1 (stereo not given),inactive,
Cc1cccc2cc(C3CC(c4ccco4)=NN3S(=O)(=O)c3ccccc3)c(Cl)nc12 (stereo not given),"inconclusive: 23.1 µM [cytotoxic, single point]",
CCCn1c(=O)c(C(=O)Nc2ccccc2)c(O)c2ccccc21,"inconclusive: 29.1 µM [cytotoxic, single point]",
NC(=O)C1CCCN(C(=O)c2cccc(S(=O)(=O)N3CCCCCC3)c2)C1 (stereo not given),"inconclusive: 23.1 µM [rising, single point]",
CCOC(=O)N1CCN(C(=O)CCCCn2c(=S)[nH]c3ccsc3c2=O)CC1,"inconclusive: 10.3 µM [rising, partial curve, poor fit]",
CCC1=C/C(=C/c2sc3ccccc3[n+]2CC)CC(C)(C)C1,"inconclusive: 29.1 µM [cytotoxic, single point]",
O=C(CSc1nc(-c2cccc(F)c2)[nH]c1-c1ccccc1)Nc1ccc2c(c1)OCO2,inactive,
CCCc1cc(=O)[nH]c(SCC(=O)Nc2cc(S(=O)(=O)N3CCCCC3)ccc2C)n1,"inconclusive: 29.1 µM [cytotoxic, single point]",
Cn1c(=O)c2cc(NC(=O)Cc3ccccc3F)ccc2n1-c1ccc(C(C)(C)C)cc1,"inconclusive: 29.1 µM [cytotoxic, single point]",
Cc1ccccc1NC(=O)c1nc(S(=O)(=O)Cc2ccccc2F)ncc1Cl,,inconclusive: 0%
O=c1cc(N2CCN(c3cccc(Cl)c3)CC2)[nH]c(=O)n1C1CCCCC1,"inconclusive: 20.6 µM [cytotoxic, single point]",
Cc1cc(N2CCCCC2)nc(SCC(=O)c2ccccc2)n1,"inconclusive: 32.6 µM [cytotoxic, single point]",
C/C(=N\Nc1c([N+](=O)[O-])c(C)nn1C)c1ccc(F)cc1F,"inconclusive: 13 µM [rising, partial curve, poor fit]",
COC(=O)CCC(=O)NNC(=O)c1ccc([N+](=O)[O-])cc1,"inconclusive: 0.731 µM [rising, full curve]",

# Taken from above.
# Potency, `COc1cc(C(=O)Nc2ccncc2)c([N+](=O)[O-])cc1OC` is entered as inconclusive: 0.0082 µM [rising, full curve, poor fit]
# Potency, `O=Nc1c(O)[nH]c2ccc(Cl)c(Cl)c12` is entered as active: 0.411 µM
